Measured values: PubChem BioAssay AID1671190 (National Center for Advancing Translational Sciences (NCATS), 2021)
The campaign covered roughly 580,000 compounds. About 6,100 (1.1%) were called active. The shares of active, inactive and inconclusive entries below differ from those in the screen. Calls come from the whole dose curve; as a rule, active = well fitted inhibition curve with a large enough effect; inconclusive = small, poorly fitted or top-dose-only effect, or another doubt; inactive = no such curve, though single readings can be large or run the other way. A potency beside an inconclusive call is a rough fit, not a confirmed value.

By UniProt entry, the sequences of proteins in these tests, tags left out. Where a name states a change or a piece, a line headed by the entry shows the natural chain unless it says otherwise.
UniProt P18054: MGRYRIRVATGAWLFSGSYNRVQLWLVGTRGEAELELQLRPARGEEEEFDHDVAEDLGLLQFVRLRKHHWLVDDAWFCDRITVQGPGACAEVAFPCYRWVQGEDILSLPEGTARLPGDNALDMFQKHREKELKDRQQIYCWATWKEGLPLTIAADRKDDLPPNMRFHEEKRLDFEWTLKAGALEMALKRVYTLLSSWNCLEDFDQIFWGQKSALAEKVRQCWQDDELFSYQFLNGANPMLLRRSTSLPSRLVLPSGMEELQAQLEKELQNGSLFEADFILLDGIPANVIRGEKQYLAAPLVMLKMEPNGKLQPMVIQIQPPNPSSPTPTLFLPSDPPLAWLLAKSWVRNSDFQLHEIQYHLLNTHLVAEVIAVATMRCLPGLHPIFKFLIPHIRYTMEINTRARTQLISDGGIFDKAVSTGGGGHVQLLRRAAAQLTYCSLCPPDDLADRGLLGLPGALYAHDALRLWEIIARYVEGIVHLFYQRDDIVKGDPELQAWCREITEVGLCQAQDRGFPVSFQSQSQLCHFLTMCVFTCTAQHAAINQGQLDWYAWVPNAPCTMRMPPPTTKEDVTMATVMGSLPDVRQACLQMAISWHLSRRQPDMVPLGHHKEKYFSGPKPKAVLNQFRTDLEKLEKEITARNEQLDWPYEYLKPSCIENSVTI

Biological target: Polyunsaturated fatty acid lipoxygenase ALOX12 (Homo sapiens) (UniProt P18054)
Experiment: Primary qHTS assay for inhibitors of human arachidonate 12S-lipoxygenase (ALOX12): Round 2
Details: purified 12hLO, xylenol orange hydroperoxide absorbance; activity change, negative = inhibition: at 108 µM (top of the series) unless noted
Method in brief: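 Purified human 12hLO at 150 nM in 25 mM Hepes, 0.01% Triton X-100, pH 7.0, preincubated 15 min at room temperature with compound. Reaction started with 40 uM arachidonic acid, 30 min at room temperature. Hydroperoxide measured by Fe-xylenol orange, 573/405 nm absorbance ratio.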
% is set by controls: 0 for no effect and ±100 for the full control effect; potency is the fitted concentration of half-maximal effect.

Compound	activity change, negative = inhibition	Potency
COCc1c(C(=O)N2CCN(c3ccccc3C)CC2)oc2ccccc12	inactive: 118%	–
CCc1c(C)sc2nc(NCCO)n3nc(-c4ccco4)nc3c12	–	inconclusive: 50.1 µM [inhibitor, partial curve, poor fit]
Cc1cc([N+](=O)[O-])nn1CC(=O)N1CCc2ccccc2C1	–	inconclusive: 31.6 µM [inhibitor, single point]
Cc1ccc(C)c(S(=O)(=O)Nc2ccc3scnc3c2)c1	–	inconclusive: 50.1 µM [inhibitor, partial curve, poor fit]
Cc1ccc(C(C)C)c(OCC(=O)NN2C(=O)c3ccccc3C2=O)c1	–	inconclusive: 31.6 µM [inhibitor, single point]
CN1CCCN(C(=O)c2cccc(Cl)c2)CC1	inactive: 16.3%	–
COc1cc(OC)nc(Oc2ccccc2C(=O)Oc2ccc(Cl)cc2)n1	inactive: -4.6%	–
Clc1ccc(COc2ccc(CNCC3CCNCC3)cc2)cc1	–	inconclusive: 63.1 µM [inhibitor, partial curve, poor fit]
O=C(CSc1ccncc1)N1CCN2C(=O)N(Cc3ccccc3)C(=O)[C@H]2C1	–	inconclusive: 25.1 µM [inhibitor, full curve]
O=C(O)c1n[nH]c2c1CCCC2	–	inconclusive: 2.51 µM [inhibitor, full curve, poor fit]
CC(C)CCN1CCOc2cc([S+](=O)([O-])Nc3cccnc3)ccc2C1	inactive: -18.7% [at 176 µM]	–
COCCNC(=O)CSc1ccc(-c2nc3ccccc3[nH]2)cn1	inactive: -8.8%	–
CCn1cc(S(=O)(=O)c2ccc(OC)cc2)c(=O)c2cc(OC)ccc21	inactive: 22.1%	–
O=C(O)C1CCN(C(=O)c2csc(-c3ccc4c(c3)CCO4)n2)CC1	–	inconclusive: 100 µM [inhibitor, single point]
CC(C)c1ccccc1NC(=S)NC(=O)C1CCCCC1	–	active: 15.8 µM
O=C(Cn1cc(CCO)nn1)N1CCNCC1	–	inconclusive: 20 µM [inhibitor, full curve, poor fit]
C/C(=N\NC(=O)C(C)Nc1cccc(Cl)c1)c1ccc([N+](=O)[O-])cc1 (stereo unspecified)	inactive: -21%	–
CC(C)(C)Cc1nnc(NS(=O)(=O)c2ccccc2)s1	inactive: -11.7%	–
COc1cccc(CNC(=O)c2[nH]c3cc(C)ccc3c2Sc2ccccc2)c1	inactive: -24.3%	–
Cc1ccc(Cl)cc1NC(=O)N[C@@H](C)C(=O)O	–	inconclusive: 5.01 µM [inhibitor, full curve, poor fit]
C=CC[C@H](N)C(=O)O	–	inconclusive: 28.2 µM [inhibitor, partial curve, poor fit]
COc1ccc(/C(O)=C2\C(=O)C(=O)NC2c2ccc(Cl)cc2)cc1F (stereo unspecified)	–	active: 11.2 µM
O=C(O)CSc1nccc2ccccc12	–	inconclusive: 89.1 µM [inhibitor, partial curve, poor fit]

Record cards, as listed above.
`Cc1ccc(C(C)C)c(OCC(=O)NN2C(=O)c3ccccc3C2=O)c1` in the list: Potency: inconclusive: 31.6 µM [inhibitor, single point]
`O=C(O)CSc1nccc2ccccc12` in the list: Potency: inconclusive: 89.1 µM [inhibitor, partial curve, poor fit]
`COCCNC(=O)CSc1ccc(-c2nc3ccccc3[nH]2)cn1` in the list: activity change, negative = inhibition: inactive: -8.8%

Remaining list, next part

Compound	activity change, negative = inhibition	Potency
COc1ccc(Br)cc1CN(C)CC(=O)NCCc1ccccc1	–	inconclusive: 1.26 µM [inhibitor, full curve]
CCN1CCN(c2oc(-c3cccs3)nc2C#N)CC1	inactive: -19.1%	–
COc1cc(C#N)ccc1OCC(=O)NCc1cccs1	–	inconclusive: 112 µM [inhibitor, partial curve, poor fit]
CC1CCCCC1NC(=O)CSc1nnc(CNC(=O)c2ccccc2)n1C (stereo unspecified)	–	inconclusive: 50.1 µM [inhibitor, partial curve, poor fit]
CC(=O)Nc1ccc(S(=O)(=O)NC2=NCN(Cc3cccnc3)CN2)cc1	inactive: 14.3%	–
CCOc1ccc(N(CC(=O)Nc2cccc(C)c2)S(C)(=O)=O)cc1	–	inconclusive: 50.1 µM [inhibitor, single point]
O=c1c2c(-c3ccccc3)csc2ncn1/N=C/c1c2ccccc2cc2ccccc12	inactive: 0.395%	–
CC(C)COC(=O)C(C#N)c1nc2ccccc2nc1Cl (stereo unspecified)	–	inconclusive: 22.4 µM [inhibitor, partial curve, poor fit]
COc1cccc(CNc2nc3cc(-c4cccc(Cl)c4)sc3c(=O)n2C)c1	inactive: -19.8%	–
CC(C)C(=O)NC(Nc1ccc(S(N)(=O)=O)cc1)C(Cl)(Cl)Cl (stereo unspecified)	inactive: -12.3%	–
O=C(Nc1cc(S(=O)(=O)N2CCCCC2)ccc1O)c1ccccc1NS(=O)(=O)c1ccc(F)c(F)c1	–	inconclusive: 70.8 µM [inhibitor, partial curve, poor fit]
CC(=O)c1cccc(NC(=O)CSc2nnc3ccc(-c4ccc(F)cc4)nn23)c1	–	inconclusive: 56.2 µM [inhibitor, partial curve, poor fit]
CC(C)=C[C@H]1C[C@H](C)[C@H]2CC[C@H](C)c3c(O[C@@H]4OC[C@@H](O)[C@H](O)C4O)c(O)c(C)c1c32 (stereo partly specified)	–	inconclusive: 141 µM [inhibitor, single point]
CCc1nc(C)c(C(=O)O)s1	–	inconclusive: 50.1 µM [inhibitor, partial curve, poor fit]
CCCC(OC(=O)CC1Sc2ccccc2NC1=O)C(=O)NCc1ccco1 (stereo unspecified)	–	active: 31.6 µM
Cc1cccc(OCCOC(=O)Cn2cnc3c2c(=O)n(C)c(=O)n3C)c1	–	inconclusive: 50.1 µM [inhibitor, single point]
CCOC(=O)C(NC(=O)CC)C(OC(=O)CC)c1ccccc1 (stereo unspecified)	inactive: -29.8%	–
CCOC(=O)C1=C(C)OC(N)=C(C#N)C1c1cc2cc(C)ccc2nc1N1CCCCC1 (stereo unspecified)	–	inconclusive: 31.6 µM [inhibitor, partial curve, poor fit]
COc1cccc(C2NC(=S)N(Cc3ccccc3)C(C)=C2C(C)=O)c1 (stereo unspecified)	–	inconclusive: 44.7 µM [inhibitor, partial curve, poor fit]
COc1ccc(N2CCN(C3CCCN(CC(N)=O)C3)CC2)cc1 (stereo unspecified)	–	inconclusive: 7.94 µM [inhibitor, full curve, poor fit]
CCOC(=O)c1ccccc1NC(=O)Cn1c(=O)n(CCC(=O)NCc2ccccc2OC)c(=O)c2ccccc21	inactive: -16.6%	–
Cc1ccc(CN2CCN(CCCn3cnc4c(OCc5ccccc5)ncnc43)CC2)cc1	–	inconclusive: 79.4 µM [inhibitor, partial curve, poor fit]
Cc1ccccc1NC(=O)Cc1nc(COC(=O)Cc2ccccc2F)cs1	inactive: -5.44%	–
